These are yes or no findings as the source states them, for the method shown. Binding seen in cells or lysates may run through a third protein. Some results given as binding are weak or reduced against the parent protein; the word gives no strength.
Legend:
GST-USP14 (human) = GST-USP14 (human) (UniProt P54578); assay: pull-down; GST, GST-TAZ or GST-USP14 from E. coli BL21 on glutathione agarose, incubated with cell lysate at 4 °C for 4 h; RIPA lysis buffer (50 mM Tris pH 7.4, 150 mM NaCl, 0.5% NP40, 1 mM EDTA); western blot; only the target purified
[1] = biological target: TAZ-Flag (full length) (human) (UniProt Q9GZV5); assay: co-IP; HEK293T cells transfected with full-length or truncated TAZ and USP14 plasmids; IP buffer 20 mM Tris-HCl pH 7.4, 150 mM NaCl, 1 mM EDTA, 1% NP-40; overnight at 4 °C

Amino acid sequences for entries named in this document (tags omitted). A change or cut given only in a name is not applied to a line headed by its entry.
UniProt P54578: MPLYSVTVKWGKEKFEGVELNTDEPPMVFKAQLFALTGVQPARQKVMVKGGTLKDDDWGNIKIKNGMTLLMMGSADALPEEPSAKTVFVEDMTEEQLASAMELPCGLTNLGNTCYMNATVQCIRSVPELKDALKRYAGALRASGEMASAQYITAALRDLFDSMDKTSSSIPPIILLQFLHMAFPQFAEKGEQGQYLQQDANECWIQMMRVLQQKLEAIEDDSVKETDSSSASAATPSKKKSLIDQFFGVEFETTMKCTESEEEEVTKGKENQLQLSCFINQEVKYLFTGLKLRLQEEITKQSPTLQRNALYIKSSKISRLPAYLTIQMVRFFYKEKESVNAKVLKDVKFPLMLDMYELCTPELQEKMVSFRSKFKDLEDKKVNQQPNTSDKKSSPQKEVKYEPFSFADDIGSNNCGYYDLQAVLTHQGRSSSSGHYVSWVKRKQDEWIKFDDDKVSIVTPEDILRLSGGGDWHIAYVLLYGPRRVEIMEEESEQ
UniProt Q9GZV5: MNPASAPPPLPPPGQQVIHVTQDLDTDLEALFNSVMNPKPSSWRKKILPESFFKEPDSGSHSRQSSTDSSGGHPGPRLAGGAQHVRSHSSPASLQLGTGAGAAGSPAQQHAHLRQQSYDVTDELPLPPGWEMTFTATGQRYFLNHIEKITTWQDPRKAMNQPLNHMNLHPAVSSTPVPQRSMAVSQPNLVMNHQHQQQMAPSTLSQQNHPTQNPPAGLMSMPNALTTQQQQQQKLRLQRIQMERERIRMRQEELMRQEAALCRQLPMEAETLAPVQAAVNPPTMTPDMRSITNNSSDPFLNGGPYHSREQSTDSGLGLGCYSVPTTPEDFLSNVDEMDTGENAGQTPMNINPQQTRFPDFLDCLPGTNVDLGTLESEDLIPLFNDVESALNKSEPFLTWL

binding (GST-USP14 (human)) | binding [1] | Substance
binds |  | TAZ (in the cell lysate of the GST pull-down) (from UniProt Q9GZV5 1-400)
 | binds | USP14 U2 (aa 105-494) (from UniProt P54578 105-494) (domain or fragment)

— paper PMC9883464
